Test [1] concerns the target T1, RIG-I (endogenous) (human (endogenous in HEK293 and A549)) (UniProt O95786).
T1 sequence: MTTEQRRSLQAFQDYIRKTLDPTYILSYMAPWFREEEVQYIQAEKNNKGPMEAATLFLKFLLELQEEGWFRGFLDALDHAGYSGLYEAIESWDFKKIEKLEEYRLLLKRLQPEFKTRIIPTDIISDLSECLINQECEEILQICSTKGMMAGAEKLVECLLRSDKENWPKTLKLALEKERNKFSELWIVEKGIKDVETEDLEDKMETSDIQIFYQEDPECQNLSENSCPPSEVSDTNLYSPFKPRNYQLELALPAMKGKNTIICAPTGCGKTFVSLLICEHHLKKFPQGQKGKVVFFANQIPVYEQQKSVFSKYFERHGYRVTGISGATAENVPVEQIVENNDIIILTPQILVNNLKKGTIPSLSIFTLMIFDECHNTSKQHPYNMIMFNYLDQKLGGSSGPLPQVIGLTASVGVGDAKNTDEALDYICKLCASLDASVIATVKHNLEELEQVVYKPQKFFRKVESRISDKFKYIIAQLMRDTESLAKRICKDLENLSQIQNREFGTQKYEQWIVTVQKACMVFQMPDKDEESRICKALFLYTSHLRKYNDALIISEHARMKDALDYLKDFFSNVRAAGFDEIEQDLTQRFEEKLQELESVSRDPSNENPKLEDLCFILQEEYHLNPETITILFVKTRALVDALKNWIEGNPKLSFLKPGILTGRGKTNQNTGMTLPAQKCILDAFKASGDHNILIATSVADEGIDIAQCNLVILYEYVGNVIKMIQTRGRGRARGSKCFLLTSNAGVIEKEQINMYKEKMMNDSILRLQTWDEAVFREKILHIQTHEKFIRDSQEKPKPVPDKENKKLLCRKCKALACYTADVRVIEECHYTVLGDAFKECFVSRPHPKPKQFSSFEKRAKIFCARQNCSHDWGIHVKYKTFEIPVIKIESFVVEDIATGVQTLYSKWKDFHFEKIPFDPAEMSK
The test can be described thus: proximity ligation.

For test [2], the target named is T2, FLAG-tagged LGP2 (human (cDNA library from HEK293 cells)) (UniProt Q96C10).
T2 sequence: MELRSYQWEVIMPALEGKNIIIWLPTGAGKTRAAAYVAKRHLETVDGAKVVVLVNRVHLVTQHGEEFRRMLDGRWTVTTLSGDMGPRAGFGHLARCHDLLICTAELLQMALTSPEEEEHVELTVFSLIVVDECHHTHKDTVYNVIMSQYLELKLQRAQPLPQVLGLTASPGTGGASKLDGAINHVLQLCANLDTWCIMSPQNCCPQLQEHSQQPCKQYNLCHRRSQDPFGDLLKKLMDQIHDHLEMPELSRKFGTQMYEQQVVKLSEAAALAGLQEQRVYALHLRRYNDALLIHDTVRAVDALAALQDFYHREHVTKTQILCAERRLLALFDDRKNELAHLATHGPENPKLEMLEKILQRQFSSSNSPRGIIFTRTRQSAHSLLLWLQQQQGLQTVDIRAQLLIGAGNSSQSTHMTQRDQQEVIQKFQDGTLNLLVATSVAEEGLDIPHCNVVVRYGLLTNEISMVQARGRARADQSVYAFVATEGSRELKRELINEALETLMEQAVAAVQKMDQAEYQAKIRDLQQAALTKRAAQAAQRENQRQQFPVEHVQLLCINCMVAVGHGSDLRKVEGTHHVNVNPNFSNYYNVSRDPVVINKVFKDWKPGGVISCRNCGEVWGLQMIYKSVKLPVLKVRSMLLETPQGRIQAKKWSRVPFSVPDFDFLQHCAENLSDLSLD
The test can be described thus: proximity ligation.

No constants are given. Whether binding was seen depends on the method and setting. In cells and extracts the contact can be indirect. Some binding calls cover weakened binding; strength is not graded here. For some assays here: Where a sequence is shown, tags or fusion partners need not be part of it.

B1: RIPLET (endogenous) (protein, UniProt Q8IUD6 1-432)
chain: MAGLGLGSAVPVWLAEDDLGCIICQGLLDWPATLPCGHSFCRHCLEALWGARDARRWACPTCRQGAAQQPHLRKNTLLQDLADKYRRAAREIQAGSDPAHCPCPGSSSLSSAAARPRRRPELQRVAVEKSITEVAQELTELVEHLVDIVRSLQNQRPLSESGPDNELSILGKAFSSGVDLSMASPKLVTSDTAAGKIRDILHDLEEIQEKLQESVTWKEAPEAQMQGELLEAPSSSSCPLPDQSHPALRRASRFAQWAIHPTFNLKSLSCSLEVSKDSRTVTVSHRPQPYRWSCERFSTSQVLCSQALSSGKHYWEVDTRNCSHWAVGVASWEMSRDQVLGRTMDSCCVEWKGTSQLSAWHMVKETVLGSDRPGVVGIWLNLEEGKLAFYSVDNQEKLLYECTISASSPLYPAFWLYGLHPGNYLIIKQVKV
In the case of B1, in test [1], the binding entry is “binds”.

B2: HA-tagged Riplet (protein, UniProt Q8IUD6 1-432)
chain: B1 chain
Regarding B2, in test [2], the binding entry is given as “binds”.

Source of the values: publication doi:10.1101/2021.01.25.428042.
